The target in test [1] is PRX1 (endogenous, MM tumor cells) (human (endogenous in MM cells, HM cell line)) (UniProt Q06830). Briefly: non-reducing SDS-PAGE with immunoblot (disulfide-bonded dimer); MM cells with or without 1 µM GV for 24 h (also with FCCP), blocked with 100 mM MMTS, RIPA lysates on non-reducing SDS-PAGE. (In general: Immunoblotting shows a protein as a band on a membrane.)
Test [2] addresses PRX3 (endogenous, MM tumor cells) (human (endogenous in MM cells, HM cell line)) (UniProt P30048). The test can be described thus: cross-linking; MM cells (HM cell line) treated with 2.5 or 5 µM TS for 24 h (also with GV or FCCP); lysates on reducing SDS-PAGE, immunoblot; non-reducible dimer at ~45 kDa.
The target is the same in test [3]. Briefly: non-reducing SDS-PAGE with immunoblot (disulfide-bonded dimer); MM cells with or without 1 µM GV for 24 h (also with FCCP), blocked with 100 mM MMTS, RIPA lysates on non-reducing SDS-PAGE.
Test [4] addresses PRX4 (endogenous, MM tumor cells) (human (endogenous in MM cells, HM cell line)) (UniProt Q13162). Described as above.

No constants are given. Whether binding was seen depends on the method and setting. For some of these results: In cells and extracts the contact can be indirect. Some results given as binding are weak or reduced against the parent protein; the word gives no strength.

B1: Wild-type human PRX1 (enzyme, UniProt Q06830 1-199, looked up)
chain: MSSGNAKIGHPAPNFKATAVMPDGQFKDISLSDYKGKYVVFFFYPLDFTFVCPTEIIAFSDRAEEFKKLNCQVIGASVDSHFCHLAWVNTPKKQGGLGPMNIPLVSDPKRTIAQDYGVLKADEGISFRGLFIIDDKGILRQITVNDLPVGRSVDETLRLVQAFQFTDKHGEVCPAGWKPGSDTIKPDVQKSKEYFSKQK
notes: peroxiredoxin 1 (PRX1), human, wild type, untagged, no extra residues; Tested reduced (DTT) and oxidised to the disulfide (H2O2); also called peroxiredoxin 1; WT PRX1
B1: the binding result in test [1] is given as “binds”.

B2: Untagged wild-type PRX3 (residues 62–256) (enzyme, human, UniProt P30048 62-256, looked up)
chain: APAVTQHAPYFKGTAVVNGEFKDLSLDDFKGKYLVLFFYPLDFTFVCPTEIVAFSDKANEFHDVNCEVVAVSVDSHFSHLAWINTPRKNGGLGHMNIALLSDLTKQISRDYGVLLEGSGLALRGLFIIDPNGVIKHLSVNDLPVGRSVEETLRLVKAFQYVETHGEVCPANWTPDSPTIKPSPAASKEYFQKVNQ
notes: peroxiredoxin 3 (PRX3), human, mitochondrial, residues 62–256, wild type, untagged; Stored oxidised to the disulfide (1.5 equivalents H2O2); tested reduced, partially oxidised and oxidised; also called peroxiredoxin 3; mitochondrial peroxiredoxin 3; not shown: Intein, N-terminal, cleaved
For the molecule B2, the binding entry in test [2] and in test [3] was “binds” in each case.

B3: PRX4 (endogenous, MM tumor cells) (protein, UniProt Q13162 38-271)
chain: WETEERPRTREEECHFYAGGQVYPGEASRVSVADHSLHLSKAKISKPAPYWEGTAVIDGEFKELKLTDYRGKYLVFFFYPLDFTFVCPTEIIAFGDRLEEFRSINTEVVACSVDSQFTHLAWINTPRRQGGLGPIRIPLLSDLTHQISKDYGVYLEDSGHTLRGLFIIDDKGILRQITLNDLPVGRSVDETLRLVQAFQYTDKHGEVCPAGWKPGSETIIPDPAGKLKYFDKLN
As for B3, in test [4], the binding result is given as “binds”.

(Values after PMC7909569, “Unique Cellular and Biochemical Features of Human Mitochondrial Peroxiredoxin 3 Establish the Molecular Basis for Its Specific Reaction with Thiostrepton” (Antioxidants, 2021).)
